Values of other authors, collected in patent publication US20130267533A1, “5HT1A AGONISTS FOR TREATMENT OF HIGH CHOLESTEROL” (FABRE-KRAMER PHARMACEUTICALS, INC., priority 2012, published 2013).
Where a name gives a salt, the structure may show the parent alone. For at least one compound, name, drawing or mass did not settle the structure.

Tested on: post-synaptic receptors in the hippocampus
Conditions: cited from earlier work

CC1(C)CC(=O)N(CCCCN2CCN(c3ncccn3)CC2)C(=O)C1 [Gepirone, 4,4-dimethyl-1-[4-[-(2-pyrimidinyl)-1-piperazinyl]-butyl]-2,6-piperidinedione hydrochloride]
type of agonism at post-synaptic receptors: partial agonist
